Measurements reported in PMC2980493.
No constants are given. Whether binding was seen depends on the method and setting. In cells and extracts the contact can be indirect. Some results given as binding are weak or reduced against the parent protein; the word gives no strength.

Amino acid sequences for entries named in this document (tags omitted). A change or cut given only in a name is not applied to a line headed by its entry. Chains listed by the source or under a name are the forms on record and can include a tag or linker. Residues count along the entry.
UniProt P48432: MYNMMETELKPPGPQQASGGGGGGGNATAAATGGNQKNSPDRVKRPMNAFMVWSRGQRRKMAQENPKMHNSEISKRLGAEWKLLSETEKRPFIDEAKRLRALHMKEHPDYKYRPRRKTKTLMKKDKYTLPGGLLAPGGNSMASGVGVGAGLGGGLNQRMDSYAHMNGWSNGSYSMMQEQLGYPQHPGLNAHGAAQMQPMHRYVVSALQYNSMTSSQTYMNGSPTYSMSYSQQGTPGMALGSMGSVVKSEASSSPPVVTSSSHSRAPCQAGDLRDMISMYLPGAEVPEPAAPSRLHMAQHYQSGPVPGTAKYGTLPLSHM
Flag-Sox2-(1-180): residues 1-180 of P48432
Flag-Sox2-(1-123): residues 1-123 of P48432
Flag-Sox2-HMG (P48432, form named): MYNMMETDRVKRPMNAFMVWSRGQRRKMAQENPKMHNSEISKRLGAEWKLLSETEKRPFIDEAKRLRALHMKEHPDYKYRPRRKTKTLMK
UniProt Q8BX22: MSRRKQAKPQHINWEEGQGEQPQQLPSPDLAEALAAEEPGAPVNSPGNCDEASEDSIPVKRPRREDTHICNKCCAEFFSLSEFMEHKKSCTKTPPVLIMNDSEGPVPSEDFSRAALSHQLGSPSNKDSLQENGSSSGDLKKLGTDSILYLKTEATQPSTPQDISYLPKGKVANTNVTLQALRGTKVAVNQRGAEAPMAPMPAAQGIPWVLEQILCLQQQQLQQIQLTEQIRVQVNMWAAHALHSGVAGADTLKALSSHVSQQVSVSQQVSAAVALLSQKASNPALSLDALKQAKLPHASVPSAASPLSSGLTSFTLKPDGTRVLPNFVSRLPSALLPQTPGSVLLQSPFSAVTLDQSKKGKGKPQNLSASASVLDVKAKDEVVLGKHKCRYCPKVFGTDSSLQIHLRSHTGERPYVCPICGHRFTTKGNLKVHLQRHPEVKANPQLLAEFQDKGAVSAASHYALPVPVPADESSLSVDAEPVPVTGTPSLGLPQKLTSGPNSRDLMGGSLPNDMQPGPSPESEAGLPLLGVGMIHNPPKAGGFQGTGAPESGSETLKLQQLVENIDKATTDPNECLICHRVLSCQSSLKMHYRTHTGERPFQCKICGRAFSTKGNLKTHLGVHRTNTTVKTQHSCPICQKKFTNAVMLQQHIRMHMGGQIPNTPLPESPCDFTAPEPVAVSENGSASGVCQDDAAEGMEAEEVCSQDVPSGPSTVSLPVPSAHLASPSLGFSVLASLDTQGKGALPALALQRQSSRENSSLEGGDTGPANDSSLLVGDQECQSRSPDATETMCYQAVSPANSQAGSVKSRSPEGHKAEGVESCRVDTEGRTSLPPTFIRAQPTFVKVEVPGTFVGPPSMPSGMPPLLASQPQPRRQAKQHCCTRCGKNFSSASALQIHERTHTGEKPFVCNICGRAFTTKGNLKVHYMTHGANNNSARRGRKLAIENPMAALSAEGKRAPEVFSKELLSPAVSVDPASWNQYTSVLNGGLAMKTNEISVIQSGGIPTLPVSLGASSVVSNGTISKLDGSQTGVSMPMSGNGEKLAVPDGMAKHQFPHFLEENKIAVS
UniProt Q92769: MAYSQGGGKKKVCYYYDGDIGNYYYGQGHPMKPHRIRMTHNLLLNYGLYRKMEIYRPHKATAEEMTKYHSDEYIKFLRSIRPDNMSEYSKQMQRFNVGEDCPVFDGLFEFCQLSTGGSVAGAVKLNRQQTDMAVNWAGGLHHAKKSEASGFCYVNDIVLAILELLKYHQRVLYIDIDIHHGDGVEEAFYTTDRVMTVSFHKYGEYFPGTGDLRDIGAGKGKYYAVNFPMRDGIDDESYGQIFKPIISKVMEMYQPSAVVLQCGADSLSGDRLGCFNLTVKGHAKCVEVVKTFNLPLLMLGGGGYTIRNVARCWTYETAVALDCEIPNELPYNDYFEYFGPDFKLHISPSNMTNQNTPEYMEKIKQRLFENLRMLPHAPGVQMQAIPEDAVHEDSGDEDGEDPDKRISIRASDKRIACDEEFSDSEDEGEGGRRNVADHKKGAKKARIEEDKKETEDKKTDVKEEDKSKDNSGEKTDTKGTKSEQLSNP
UniProt O09106: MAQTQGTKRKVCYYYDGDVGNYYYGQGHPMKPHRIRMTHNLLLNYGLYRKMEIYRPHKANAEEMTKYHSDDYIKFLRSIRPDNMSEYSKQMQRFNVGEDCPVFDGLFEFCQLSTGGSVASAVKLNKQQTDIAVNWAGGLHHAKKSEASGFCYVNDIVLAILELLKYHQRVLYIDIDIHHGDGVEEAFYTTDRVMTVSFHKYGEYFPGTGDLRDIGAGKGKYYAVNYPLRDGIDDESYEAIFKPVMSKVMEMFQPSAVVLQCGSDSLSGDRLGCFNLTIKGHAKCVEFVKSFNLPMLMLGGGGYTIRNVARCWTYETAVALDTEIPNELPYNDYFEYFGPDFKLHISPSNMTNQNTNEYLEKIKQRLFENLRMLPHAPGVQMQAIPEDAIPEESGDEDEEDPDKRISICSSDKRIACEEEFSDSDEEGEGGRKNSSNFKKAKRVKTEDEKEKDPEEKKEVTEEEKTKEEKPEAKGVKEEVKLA

Experiments:
[1] = molecular target: Flag-Sox2 (UniProt P48432); test: co-IP; 293T cells transiently transfected with both partners; nuclear extracts (NE-PER kit) 1 day later; Flag-Sox2 constructs precipitated on anti-Flag M2-beads; eluates probed by western blot
[2] = molecular target: Flag-Sox2-(1-123) (UniProt P48432); test: as above
[3] = molecular target: Flag-Sox2 (UniProt P48432); test: co-IP; 293T cells transiently transfected with Flag-Sox2 constructs only; endogenous HDAC2; nuclear extracts, anti-Flag M2-beads, western blot
[4] = molecular target: Flag-Sox2-(1-123) (UniProt P48432); test: as above
[5] = molecular target: Flag-Sox2-HMG (UniProt P48432); test: as above
[6] = molecular target: Flag-Sox2-HMG (UniProt P48432); test: co-IP; 293T cells transiently transfected with both partners; nuclear extracts (NE-PER kit) 1 day later; Flag-Sox2 constructs precipitated on anti-Flag M2-beads; eluates probed by western blot
[7] = molecular target: Flag-Sox2-(1-180) (UniProt P48432); test: as above

| Substance | binding [1] | binding [2] | binding [3] | binding [4] | binding [5] | binding [6] | binding [7] |
| --- | --- | --- | --- | --- | --- | --- | --- |
| Sall4 (from UniProt Q8BX22 1-1067) | binds | binds | – | – | – | – | – |
| endogenous HDAC2 (from UniProt Q92769 1-488) (enzyme) | – | – | binds | binds | binds | – | – |
| GFP-Sox2 (from UniProt P48432 1-319) | – | – | – | – | – | binds | – |
| HDAC1 (from UniProt O09106 1-482) (enzyme) | binds | binds | – | – | – | binds | binds |
